In this experiment the target is T1, Dcp1-TAP (S. cerevisiae), Q12517.
T1 chain: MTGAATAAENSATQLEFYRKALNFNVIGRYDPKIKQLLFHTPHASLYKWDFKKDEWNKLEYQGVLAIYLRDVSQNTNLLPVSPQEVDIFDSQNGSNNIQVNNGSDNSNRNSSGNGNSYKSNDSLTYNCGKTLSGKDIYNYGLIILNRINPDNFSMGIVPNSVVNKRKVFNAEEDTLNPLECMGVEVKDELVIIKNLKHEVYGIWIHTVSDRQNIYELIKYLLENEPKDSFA
As to the kind of experiment: affinity purification with mass spectrometry. The settings on record: remark: other sources report otherwise.

These are yes or no findings as the source states them, for the method shown. Binding seen in cells or lysates may run through a third protein. These calls come from enrichment with a bait or labelling near it, and not all partners need be listed.

B1: Pat1, P25644 1-796 (protein)
chain: MSFFGLENSGNARDGPLDFEESYKGYGEHELEENDYLNDETFGDNVQVGTDFDFGNPHSSGSSGNAIGGNGVGATARSYVAATAEGISGPRTDGTAAAGPLDLKPMESLWSTAPPPAMAPSPQSTMAPAPAPQQMAPLQPILSMQDLERQQRQMQQQFMNFHAMGHPQGLPQGPPQQQFPMQPASGQPGPSQFAPPPPPPGVNVNMNQMPMGPVQVPVQASPSPIGMSNTPSPGPVVGATKMPLQSGRRSKRDLSPEEQRRLQIRHAKVEKILKYSGLMTPRDKDFITRYQLSQIVTEDPYNEDFYFQVYKIIQRGGITSESNKGLIARAYLEHSGHRLGGRYKRTDIALQRMQSQVEKAVTVAKERPSKLKDQQAAAGNSSQDNKQANTVLGKISSTLNSKNPRRQLQIPRQQPSDPDALKDVTDSLTNVDLASSGSSSTGSSAAAVASKQRRRSSYAFNNGNGATNLNKSGGKKFILELIETVYEEILDLEANLRNGQQTDSTAMWEALHIDDSSYDVNPFISMLSFDKGIKIMPRIFNFLDKQQKLKILQKIFNELSHLQIIILSSYKTTPKPTLTQLKKVDLFQMIILKIIVSFLSNNSNFIEIMGLLLQLIRNNNVSFLTTSKIGLNLITILISRAALIKQDSSRSNILSSPEISTWNEIYDKLFTSLESKIQLIFPPREYNDHIMRLQNDKFMDEAYIWQFLASLALSGKLNHQRIIIDEVRDEIFATINEAETLQKKEKELSVLPQRSQELDTELKSIIYNKEKLYQDLNLFLNVMGLVYRDGEISELK
Consider B1, for which the binding result is “binds”.

The record behind these values is paper doi:10.64898/2025.12.17.694855.
